The campaign covered roughly 290,000 compounds. About 110 (0.038%) were called active. Inconclusive means that the source gave no clear call. Such entries were picked first, then a sample of the others. Calls come from the whole dose curve; as a rule, active = well fitted inhibition curve with a large enough effect in the polarisation, with a control signal flat (not every such curve was filed as active); inconclusive = small, poorly fitted or top-dose-only effect, or effect the other way, or a change in a side signal; inactive = no such curve, though single readings can be large or run the other way; the % refers to the polarisation. A potency beside an inconclusive call is a rough fit, not a confirmed value. A note “side channel” means that the fit belongs to a control or component signal, not to the main read-out.
Biological target: Histone-lysine N-methyltransferase 2A (Homo sapiens) (UniProt Q03164)
Test: qHTS Fluorescence Polarization Assay for Inhibitors of MLL CXXC domain - DNA interaction
Details: MLL-CXXC / FITC-HOXA9 DNA fluorescence polarization; activity change, negative = inhibition: at 115 µM (top of the series)
Outline: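 Fluorescence polarization: 7 uM MLL-CXXC (stock) preincubated 5 min with compounds, then 50 nM fluorescein-HOX-A9 DNA (stock) added; 30 min ambient. Buffer 50 mM Tris-HCl pH 7.5, 50 mM NaCl, 1 mM DTT, 0.05% BSA.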
Potency is the fitted concentration of half-maximal effect.

Protein sequences, listed by entry. Tags and fused reporters are not part of them.
UniProt Q03164, whole entry, looked up: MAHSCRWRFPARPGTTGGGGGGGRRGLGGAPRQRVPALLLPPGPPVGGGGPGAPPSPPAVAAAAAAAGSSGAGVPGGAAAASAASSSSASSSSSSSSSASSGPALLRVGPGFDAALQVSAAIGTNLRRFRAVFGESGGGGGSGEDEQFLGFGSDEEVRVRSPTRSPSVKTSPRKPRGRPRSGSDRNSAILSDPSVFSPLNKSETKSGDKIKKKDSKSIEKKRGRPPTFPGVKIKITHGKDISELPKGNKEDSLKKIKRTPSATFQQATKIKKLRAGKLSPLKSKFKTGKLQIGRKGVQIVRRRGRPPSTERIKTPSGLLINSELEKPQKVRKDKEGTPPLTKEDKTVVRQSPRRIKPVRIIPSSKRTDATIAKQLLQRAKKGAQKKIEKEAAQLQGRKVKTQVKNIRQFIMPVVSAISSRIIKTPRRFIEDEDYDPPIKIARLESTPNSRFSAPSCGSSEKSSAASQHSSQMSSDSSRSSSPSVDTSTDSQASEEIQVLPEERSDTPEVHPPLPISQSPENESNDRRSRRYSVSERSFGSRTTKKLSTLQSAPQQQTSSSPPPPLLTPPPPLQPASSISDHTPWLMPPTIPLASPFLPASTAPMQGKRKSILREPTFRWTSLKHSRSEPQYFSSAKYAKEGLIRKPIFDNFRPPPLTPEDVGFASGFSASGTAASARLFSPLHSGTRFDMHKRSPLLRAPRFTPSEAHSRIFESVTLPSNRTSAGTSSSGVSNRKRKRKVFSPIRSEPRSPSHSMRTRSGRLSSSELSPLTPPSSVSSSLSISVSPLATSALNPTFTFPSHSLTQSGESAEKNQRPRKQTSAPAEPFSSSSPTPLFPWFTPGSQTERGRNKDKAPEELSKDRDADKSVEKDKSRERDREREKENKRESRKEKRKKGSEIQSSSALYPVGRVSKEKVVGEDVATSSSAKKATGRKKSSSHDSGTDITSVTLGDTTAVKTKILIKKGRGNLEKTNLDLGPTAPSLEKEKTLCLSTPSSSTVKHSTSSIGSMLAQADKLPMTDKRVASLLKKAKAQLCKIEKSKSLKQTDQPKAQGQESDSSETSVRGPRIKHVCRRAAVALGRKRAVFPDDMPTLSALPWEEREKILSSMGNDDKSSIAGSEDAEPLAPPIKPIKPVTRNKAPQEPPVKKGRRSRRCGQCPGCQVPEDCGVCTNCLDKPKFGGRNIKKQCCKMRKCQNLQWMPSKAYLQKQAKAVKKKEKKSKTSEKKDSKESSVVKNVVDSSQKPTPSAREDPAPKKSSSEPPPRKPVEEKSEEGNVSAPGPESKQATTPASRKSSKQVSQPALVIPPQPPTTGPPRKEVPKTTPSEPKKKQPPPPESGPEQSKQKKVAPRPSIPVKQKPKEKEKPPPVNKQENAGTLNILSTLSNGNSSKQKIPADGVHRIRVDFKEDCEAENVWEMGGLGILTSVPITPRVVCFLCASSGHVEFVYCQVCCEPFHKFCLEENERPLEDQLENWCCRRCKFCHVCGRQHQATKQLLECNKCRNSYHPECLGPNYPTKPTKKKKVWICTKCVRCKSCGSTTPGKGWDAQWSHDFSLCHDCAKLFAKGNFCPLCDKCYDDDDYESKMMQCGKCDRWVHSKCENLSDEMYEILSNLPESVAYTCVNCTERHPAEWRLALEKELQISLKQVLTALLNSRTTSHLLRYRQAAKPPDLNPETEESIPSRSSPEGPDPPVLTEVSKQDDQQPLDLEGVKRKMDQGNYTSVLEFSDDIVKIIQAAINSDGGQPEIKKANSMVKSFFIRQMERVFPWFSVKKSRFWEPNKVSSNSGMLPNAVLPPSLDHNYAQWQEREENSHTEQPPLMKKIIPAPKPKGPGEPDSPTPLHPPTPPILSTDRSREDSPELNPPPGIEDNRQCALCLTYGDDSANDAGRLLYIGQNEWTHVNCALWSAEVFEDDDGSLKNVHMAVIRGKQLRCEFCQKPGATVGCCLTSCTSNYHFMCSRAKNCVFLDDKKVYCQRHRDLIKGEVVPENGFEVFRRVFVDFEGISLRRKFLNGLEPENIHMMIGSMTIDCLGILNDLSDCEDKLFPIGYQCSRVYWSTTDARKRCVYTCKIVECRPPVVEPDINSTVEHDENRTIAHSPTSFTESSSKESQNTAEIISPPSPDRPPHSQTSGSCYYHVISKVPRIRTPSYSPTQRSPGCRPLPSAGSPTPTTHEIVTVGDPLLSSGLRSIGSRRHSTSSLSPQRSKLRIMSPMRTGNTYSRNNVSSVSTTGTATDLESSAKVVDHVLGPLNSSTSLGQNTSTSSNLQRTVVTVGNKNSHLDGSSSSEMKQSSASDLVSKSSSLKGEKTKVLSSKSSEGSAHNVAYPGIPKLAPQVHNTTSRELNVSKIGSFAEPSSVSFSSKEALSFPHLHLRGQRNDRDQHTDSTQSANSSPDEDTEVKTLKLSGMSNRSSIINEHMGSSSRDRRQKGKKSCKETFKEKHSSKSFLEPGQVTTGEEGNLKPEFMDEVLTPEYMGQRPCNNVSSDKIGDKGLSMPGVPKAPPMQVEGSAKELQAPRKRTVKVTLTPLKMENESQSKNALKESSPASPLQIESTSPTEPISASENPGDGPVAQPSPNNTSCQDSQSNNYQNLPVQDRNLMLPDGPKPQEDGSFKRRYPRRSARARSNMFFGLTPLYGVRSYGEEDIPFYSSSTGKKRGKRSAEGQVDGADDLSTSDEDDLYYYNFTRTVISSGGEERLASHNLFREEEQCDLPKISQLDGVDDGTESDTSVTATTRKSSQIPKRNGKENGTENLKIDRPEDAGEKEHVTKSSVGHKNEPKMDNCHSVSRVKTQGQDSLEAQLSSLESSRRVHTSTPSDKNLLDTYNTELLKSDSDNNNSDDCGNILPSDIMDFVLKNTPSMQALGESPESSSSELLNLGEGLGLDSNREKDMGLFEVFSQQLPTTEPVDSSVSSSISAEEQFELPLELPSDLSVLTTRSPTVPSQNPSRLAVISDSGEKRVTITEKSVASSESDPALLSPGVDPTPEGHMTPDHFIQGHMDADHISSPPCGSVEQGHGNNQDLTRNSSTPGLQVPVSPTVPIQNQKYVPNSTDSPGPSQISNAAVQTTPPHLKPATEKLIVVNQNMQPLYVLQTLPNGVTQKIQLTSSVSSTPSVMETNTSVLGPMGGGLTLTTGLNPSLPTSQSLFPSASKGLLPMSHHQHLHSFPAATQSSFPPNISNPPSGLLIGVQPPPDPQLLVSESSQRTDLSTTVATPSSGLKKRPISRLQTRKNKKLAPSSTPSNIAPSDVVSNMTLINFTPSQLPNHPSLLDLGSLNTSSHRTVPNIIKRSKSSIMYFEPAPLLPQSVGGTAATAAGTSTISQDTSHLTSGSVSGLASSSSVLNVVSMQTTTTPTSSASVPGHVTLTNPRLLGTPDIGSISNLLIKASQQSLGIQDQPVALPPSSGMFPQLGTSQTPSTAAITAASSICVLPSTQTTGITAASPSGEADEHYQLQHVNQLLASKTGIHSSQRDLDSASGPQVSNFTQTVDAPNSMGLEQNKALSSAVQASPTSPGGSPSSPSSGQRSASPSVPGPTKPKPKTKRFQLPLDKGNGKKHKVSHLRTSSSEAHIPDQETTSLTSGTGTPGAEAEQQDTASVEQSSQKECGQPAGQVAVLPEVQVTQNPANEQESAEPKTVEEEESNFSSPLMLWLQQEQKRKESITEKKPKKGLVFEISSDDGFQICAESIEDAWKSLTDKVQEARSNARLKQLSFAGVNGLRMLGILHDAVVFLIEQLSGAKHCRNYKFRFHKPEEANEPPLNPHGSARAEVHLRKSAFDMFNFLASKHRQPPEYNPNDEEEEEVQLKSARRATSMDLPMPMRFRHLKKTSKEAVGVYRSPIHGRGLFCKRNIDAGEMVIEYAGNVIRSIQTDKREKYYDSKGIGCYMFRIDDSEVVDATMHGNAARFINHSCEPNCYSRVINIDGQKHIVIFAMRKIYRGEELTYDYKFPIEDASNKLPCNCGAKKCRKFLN

SMILES	Potency	activity change, negative = inhibition
CCOc1ccc(/C=N/NC(=O)c2nnn(-c3nonc3N)c2CN(C)C2CCCCC2)cc1	inactive	–
CCCn1c(=O)[nH]c(=O)c2c1nc(-c1ccccc1OC(F)F)n2CCOC	inactive	–
O=C(Nc1ccc(OC(=O)c2ccccc2)c(-c2nc3ccccc3s2)c1)c1ccccc1	inactive	–
O=C1CCN2C=Nc3cccc4ccc1c2c34	inconclusive: 5.62 µM [fluorescent, side channel, full curve]	–
COC(=O)C1=CN(c2cc(C)cc(C)c2)C=C(C(=O)OC)C1c1cccc(F)c1	inconclusive: 10 µM [quencher, side channel, partial curve]	–
Cc1ccc2nc3sc(C(=O)NCc4ccco4)c(N)c3cc2c1	inconclusive: 31.6 µM [fluorescent, side channel, partial curve]	–
C[C@@H](CN1C2=NC[C@H](C)N2C[C@H]1Cc1ccc(O)cc1)NC(=O)CCC1CCCCC1	inconclusive: 70.8 µM [inhibitor, single point]	–
CCC(=O)NCCc1nc2cc(NC(=O)c3ccco3)ccc2n1C	inconclusive: 39.8 µM [fluorescent, side channel, single point]	–
Nc1ccc(N2CCCCC2)c2nonc12	inactive	–
CCn1c(SCc2nc3sc(C(=O)O)c(C)c3c(=O)[nH]2)nnc1-c1ccc(Cl)cc1	inconclusive: 39.8 µM [fluorescent, side channel, partial curve]	–
CN(Cc1ccc(N(C)C)cc1)C(=O)c1cc2ccccc2o1	inconclusive: 0.891 µM [fluorescent, side channel, full curve, poor fit]	–
CC(C)C(NC(=O)CN1C(=O)c2ccccc2C1=O)c1ccccc1 (stereo not drawn)	inconclusive: 1.41 µM [fluorescent, side channel, partial curve, poor fit]	–
Cc1ccc(C(=O)N/C(=C/c2ccc(Cl)cc2)C(=O)Nc2cccc(C(=O)O)c2)cc1	inconclusive: 14.1 µM [fluorescent, side channel, full curve]	–
O=C(NC(=S)Nc1ccc(Br)c(Cl)c1)C1CC1	inactive	–
CCCc1cc(=O)n2c(nc3ccccc32)[nH]1	inactive	–
Cc1ccc(/C=C2\SC(=S)N(C3CCS(=O)(=O)C3)C2=O)cc1 (stereo not drawn)	inconclusive: 5.62 µM [inhibitor, single point]	–
COc1ccc2c3c(cccc13)C(=O)N(O)C2=O	inconclusive: 22.4 µM [inhibitor, partial curve]	–
COc1cc2c(cc1OC)CN(C(=O)Nc1ccccc1Cl)CC2	inactive	–
CC(C)N1C(=O)S/C(=C/c2ccc(Sc3nc4ccccc4[nH]3)o2)C1=O	inactive	–
CCCN1C2=C(C(=O)CC(C)(C)C2)C(c2ccc(F)cc2)C2=C1c1ccccc1C2=O (stereo not drawn)	inconclusive: 89.1 µM [inhibitor, single point]	–
CN(C)c1ccc(/C=C(\C#N)C(=O)NCc2ccco2)cc1	inconclusive: 22.4 µM [fluorescent, side channel, partial curve]	–

Rewritten with bars between the fields: four of the compounds above
SMILES | Potency | activity change, negative = inhibition
Nc1ccc(N2CCCCC2)c2nonc12 | inactive | –
CCn1c(SCc2nc3sc(C(=O)O)c(C)c3c(=O)[nH]2)nnc1-c1ccc(Cl)cc1 | inconclusive: 39.8 µM [fluorescent, side channel, partial curve] | –
CN(Cc1ccc(N(C)C)cc1)C(=O)c1cc2ccccc2o1 | inconclusive: 0.891 µM [fluorescent, side channel, full curve, poor fit] | –
CC(C)C(NC(=O)CN1C(=O)c2ccccc2C1=O)c1ccccc1 (stereo not drawn) | inconclusive: 1.41 µM [fluorescent, side channel, partial curve, poor fit] | –

Next results

SMILES	Potency	activity change, negative = inhibition
Cc1cc(C(=O)OCC(=O)N2CCc3ccccc32)c(C)o1	inconclusive: 56.2 µM [quencher, side channel, single point]	–
O=C(COC(=O)c1n[nH]c2ccccc12)Nc1ccc([N+](=O)[O-])cc1	inactive	–
O=C(c1ccc(Cl)cc1)C1C2C(=O)N(c3ccccc3)C(=O)C2C2CCCN21 (stereo not drawn)	inconclusive: 35.5 µM [inhibitor, single point]	–
CCc1ccc2nc3nc(C)cc(C)c3c(N)c2c1	inconclusive: 28.2 µM [quencher, side channel, partial curve]	–
COc1ccc(N2CCN(CC(=O)Nc3ncc(C)s3)CC2)cc1	inconclusive: 35.5 µM [fluorescent, side channel, partial curve]	–
O=Cc1ccccc1Oc1ccccc1	inconclusive: 70.8 µM [fluorescent, side channel, single point]	–
O=C(O)C1C2C=CC(C2)C1C(=O)NCc1ccco1 (stereo not drawn)	inconclusive: 35.5 µM [fluorescent, side channel, partial curve]	–
C=C1SC(=Nc2c(C)cccc2Cl)N(C(=O)c2sc3ccccc3c2Cl)C12CCCCC2	inconclusive: 44.7 µM [fluorescent, side channel, single point]	–
O=C(N/N=C/c1cc(Br)ccc1O)C(c1ccncc1)N1CCOCC1 (stereo not drawn)	inactive	–
CC1=NN(C(N)=S)C(=O)C1N=Nc1c(Cl)cc([N+](=O)[O-])cc1Cl (stereo not drawn)	inconclusive: 8.91 µM [inhibitor, partial curve]	–
O=C(O)c1cc(S(=O)(=O)NCC2CCCO2)ccc1Cl (stereo not drawn)	inconclusive: 63.1 µM [inhibitor, single point]	–
Cc1cc(C)nc(NC(=O)/C=C/c2cccs2)c1	inactive	–
COc1ccc(NC(=S)N2CCN(C(=O)c3ccco3)CC2)c(OC)c1	inconclusive: 14.1 µM [inhibitor, single point]	–
COCC(C)N1CCC(Oc2ccc(C(=O)N3CCCC3)cc2)CC1 (stereo not drawn)	inconclusive: 11.2 µM [fluorescent, side channel, partial curve]	–
CCN(CC)c1ccc2cc(-c3nc(-c4ccc(OC)cc4)cs3)c(=O)oc2c1	inconclusive: 31.6 µM [fluorescent, side channel, partial curve, poor fit]	–
O=C(COc1cc(Cl)c(Cl)cc1Cl)N1CCN(c2ccccn2)CC1	inconclusive: 70.8 µM [fluorescent, side channel, single point]	–
COP(=O)(OC)c1nc(-c2cccc3ccccc23)oc1N1CCCCC1	inactive	–
Oc1c(/C=N/c2ccccn2)sc2ccccc12	inconclusive: 17.8 µM [fluorescent, side channel, partial curve]	–
Cn1c(=O)c2c(C(=O)O)cc(-c3ccccc3)nc2n(Cc2ccccc2)c1=O	inconclusive: 79.4 µM [fluorescent, side channel, single point]	–
COc1nc(-c2ccccc2)ccc1-c1noc(-c2cccnc2)n1	inactive	–
CCCN(CCC)S(=O)(=O)c1ccc(C(=O)OCCN2C(=O)c3cccc4c(N5CCOCC5)ccc(c34)C2=O)cc1	inconclusive: 14.1 µM [fluorescent, single point]	–

SMILES	Potency	activity change, negative = inhibition
CCOC(=O)Cc1csc(NC(=O)c2c(O)c3c(n(CC(C)C)c2=O)CCCC3)n1	inconclusive: 8.91 µM [quencher, side channel, full curve]	–
CN(C)c1ccc(N=Cc2nc(-c3ccccc3)oc2O)cc1	inconclusive: 89.1 µM [inhibitor, single point]	–
CCN(CC)CCCNCC(=O)Nc1cc(C)on1	inconclusive: 31.6 µM [fluorescent, side channel, single point]	–
COC(=O)c1ccccc1NC(=O)COC(=O)c1ccccc1N=Nc1ccc(N(C)C)cc1	inactive	–
Cn1cnc2c1c(=O)n(Cc1ccccc1C#N)c(=O)n2C	inconclusive: 35.5 µM [fluorescent, side channel, single point]	–
COc1ccc(-c2cc(OC)c3c(C)oc(C)c3c(=O)c2)cc1OC	inconclusive: 28.2 µM [fluorescent, partial curve]	–
CNC(=O)c1c(NC(=O)c2ccc(S(=O)(=O)N3CCCC3)cc2)sc2c1CCN(C(C)C)C2	inconclusive: 15.8 µM [fluorescent, partial curve]	–
O=C(Nc1ccc(N2CCOCC2)c(F)c1)c1cccs1	inconclusive: 14.1 µM [fluorescent, side channel, single point]	–
CCOP(=O)(OCC)C(NC(=O)Nc1ccc(C)c(Cl)c1)c1ccccc1 (stereo not drawn)	inactive	–
Cc1noc(N)c1C1(O)C(=O)Nc2c(Cl)cc(Cl)cc21 (stereo not drawn)	inconclusive: 39.8 µM [inhibitor, single point]	–
CC(C)C(=O)NC(c1cccc([N+](=O)[O-])c1)c1ccc2cccnc2c1O (stereo not drawn)	inconclusive: 31.6 µM [inhibitor, partial curve]	–
Cc1cc(Cl)ccc1OC(C)C(=O)NC(C)C1CCCO1 (stereo not drawn)	inconclusive: 7.94 µM [fluorescent, side channel, partial curve]	–
CCOC(=O)CCC(NC(=O)CCCCC(=O)NC(CCC(=O)OCC)C(=O)OCC)C(=O)OCC (stereo not drawn)	inconclusive: 63.1 µM [quencher, side channel, partial curve, poor fit]	–
O=C1ON=C(c2ccccc2)/C1=C\c1ccco1	inconclusive: 17.8 µM [inhibitor, full curve]	–
CCN(CC(=O)NCc1ccc(Cl)cc1)CC(=O)Nc1ccc(C(N)=O)cc1	inconclusive: 3.16 µM [fluorescent, side channel, full curve]	–
CS(=O)(=O)Cc1nc2ccccc2oc1=O	inactive	–
Cn1nccc1/C=N\NC(=O)c1ccc(Cl)cc1	–	inconclusive: 9.5% [phenotype inactive]
Nc1nonc1C(=O)NCCNCc1ccccc1	inconclusive: 63.1 µM [quencher, side channel, single point]	–
O=C(Cc1ccc([N+](=O)[O-])cc1)Nc1ccc(O)cc1C(=O)O	inconclusive: 50.1 µM [inhibitor, single point]	–
Cc1cc2cc(CNC(=O)c3ccc4c(c3)OCO4)ccc2n1C	inconclusive: 56.2 µM [quencher, side channel, partial curve]	–
CC1CCc2sc(C(=O)NNC(=S)NCC3CCCO3)cc2C1 (stereo not drawn)	–	inconclusive: 0.113% [phenotype inactive]
